{
  "sequences": {"note": "By UniProt entry, the sequences of proteins in these tests, tags left out. Where a name states a change or a piece, a line headed by the entry shows the natural chain unless it says otherwise.", "UniProt P18054": "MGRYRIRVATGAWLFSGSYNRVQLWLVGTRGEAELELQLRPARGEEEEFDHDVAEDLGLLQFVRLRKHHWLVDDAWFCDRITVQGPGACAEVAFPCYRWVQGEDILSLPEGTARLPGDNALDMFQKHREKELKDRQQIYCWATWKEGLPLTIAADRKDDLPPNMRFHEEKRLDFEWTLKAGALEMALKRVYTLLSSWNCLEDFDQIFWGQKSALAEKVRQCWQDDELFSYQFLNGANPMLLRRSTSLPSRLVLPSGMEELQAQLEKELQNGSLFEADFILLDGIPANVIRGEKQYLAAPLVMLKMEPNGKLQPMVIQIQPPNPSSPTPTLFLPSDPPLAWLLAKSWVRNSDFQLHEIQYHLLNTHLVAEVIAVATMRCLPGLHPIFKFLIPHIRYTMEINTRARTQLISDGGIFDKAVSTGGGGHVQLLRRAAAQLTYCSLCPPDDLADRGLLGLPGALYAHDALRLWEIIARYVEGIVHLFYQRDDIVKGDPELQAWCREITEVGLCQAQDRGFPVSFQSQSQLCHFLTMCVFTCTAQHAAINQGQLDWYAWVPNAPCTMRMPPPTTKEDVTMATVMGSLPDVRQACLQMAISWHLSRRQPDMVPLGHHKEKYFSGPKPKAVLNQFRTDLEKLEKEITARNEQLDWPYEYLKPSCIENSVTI"},
  "source": "PubChem BioAssay AID1671190",
  "about": "(National Center for Advancing Translational Sciences (NCATS), 2021)",
  "note": "Several values for one entry are separate records, joined by “and”; a condition that tells them apart may be missing. Identical values can stand only once. Among all 580,000 compounds or so, about 6,100 (1.1%) were called active. Inconclusive results, whose numbers are uncertain, are shown with a selection of clear calls. Calls come from the whole dose curve; as a rule, active = well fitted inhibition curve with a large enough effect; inconclusive = small, poorly fitted or top-dose-only effect, or another doubt; inactive = no such curve, though single readings can be large or run the other way. A potency beside an inconclusive call is a rough fit, not a confirmed value. Potency is the fitted concentration of half-maximal effect.",
  "data": [
    {"target": "Polyunsaturated fatty acid lipoxygenase ALOX12 (Homo sapiens) (UniProt P18054)", "experiment": "Primary qHTS assay for inhibitors of human arachidonate 12S-lipoxygenase (ALOX12): Round 2", "conditions": "purified 12hLO, xylenol orange hydroperoxide absorbance; series mostly up to 108 µM", "how_it_was_run": "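Purified human 12hLO at 150 nM in 25 mM Hepes, 0.01% Triton X-100, pH 7.0, preincubated 15 min at room temperature with compound. Reaction started with 40 uM arachidonic acid, 30 min at room temperature. Hydroperoxide measured by Fe-xylenol orange, 573/405 nm absorbance ratio.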", "values": [
      {"smiles": "O=C(CSc1nc2nc[nH]c2c(=O)[nH]1)c1ccc(F)cc1", "Potency": "inconclusive: 0.631 µM [inhibitor, full curve, poor fit]"},
      {"smiles": "O=c1[nH]c2cc(Cl)c(Br)cc2o1", "Potency": "inconclusive: 89.1 µM [inhibitor, single point]"},
      {"smiles": "O=[N+]([O-])c1cc(C(F)(F)F)ccc1NCCCCNS(=O)(=O)c1ccc(Cl)cc1", "Potency": "inconclusive: 20 µM [inhibitor, partial curve, poor fit]"},
      {"smiles": "NC(=O)c1ccc(NC(=O)CSc2ccc3ccccc3n2)cc1", "Potency": "inconclusive: 7.08 µM [inhibitor, full curve, poor fit]"},
      {"smiles": "CCCCCn1ccc(=O)c2c(C(F)(F)F)nccc21", "Potency": "inactive"},
      {"smiles": "COCCn1c2c(c(=O)[nH]c1=O)C(c1ccc(OC)cc1)C1=C(N2)c2ccccc2C1=O", "note": "(configuration not stated)", "Potency": "inconclusive: 25.1 µM [inhibitor, partial curve, poor fit]"},
      {"smiles": "CCCCC[C@@H]1C=C(C(=O)O)[C@H](c2ccc(Cl)cc2)N1S(=O)(=O)c1ccc(C)cc1", "Potency": "inconclusive: 44.7 µM [inhibitor, partial curve, poor fit]"},
      {"smiles": "S=c1nc(NCc2ccc3c(c2)OCO3)c2ccccc2[nH]1", "Potency": "inactive"},
      {"smiles": "COC(=O)N1C(=O)[C@](c2ccc(OC)cc2)(C(C)C)N1C(=O)OC", "Potency": "inactive"},
      {"smiles": "O=C(COc1ccccc1)N1CCOC[C@H](Oc2ccc(C(F)(F)F)cc2)C1", "Potency": "inactive"},
      {"smiles": "O=C(NCc1ccco1)Nc1cccs1", "Potency": "inconclusive: 141 µM [inhibitor, single point]"},
      {"smiles": "COCCCn1c(=NC(=O)c2ccccc2)c(C#N)cc2c(=O)n3cccc(C)c3nc21", "Potency": "inconclusive: 50.1 µM [inhibitor, partial curve, poor fit]"},
      {"smiles": "CCCCCn1nc(C(=O)Nc2ncc(C)s2)c2ccccc2c1=O", "Potency": "inconclusive: 79.4 µM [inhibitor, partial curve, poor fit]"},
      {"smiles": "Cc1cc(Br)cnc1NC(=S)Nc1ccc(F)cc1F", "Potency": "active: 14.1 µM"},
      {"smiles": "CCN(CC)CCNC(=O)NC(=O)c1ccccc1", "Potency": "inconclusive: 2.82 µM [inhibitor, full curve, poor fit]"},
      {"smiles": "O=C(NC1CC1)C(NCc1cccc(Cl)c1)c1ccc(F)cc1", "note": "(configuration not stated)", "Potency": "inconclusive: 0.398 µM [inhibitor, full curve, poor fit]"},
      {"smiles": "CN1CC(=O)N(C2CCCNC2)Cc2c(NCCO)ncnc21", "note": "(configuration not stated)", "Potency": "inconclusive: 2.82 µM [inhibitor, full curve, poor fit]"},
      {"smiles": "COC(=O)c1ccc(C2C(c3ccc(C)cc3)=C(O)C(=O)N2CCc2ccc(OC)c(OC)c2)cc1", "note": "(configuration not stated)", "Potency": "inconclusive: 11.2 µM [inhibitor, full curve, poor fit]"},
      {"smiles": "CCC(=O)Nc1ccc(NC(=O)CSc2nc3c(c(=O)n(C)c(=O)n3C)n2CC)cc1", "Potency": "inconclusive: 126 µM [inhibitor, partial curve, poor fit]"},
      {"smiles": "Cc1ccc(C(NC(=O)C2CCN(Cc3ccc(Cl)c(Cl)c3)CC2)c2ccccn2)cc1", "note": "(configuration not stated)", "Potency": "inconclusive: 56.2 µM [inhibitor, partial curve, poor fit]"},
      {"smiles": "Cc1ccc(S(=O)(=O)NC2CC2)cc1C(=O)Nc1ccccc1C(=O)NC1CC1", "Potency": "inactive"},
      {"smiles": "O=C(Nc1ccccc1NC(=O)c1ccco1)c1ccccc1", "Potency": "inactive"},
      {"smiles": "CCOC(=O)c1ccc(S(=O)(=O)NCCN2CCOCC2)cc1", "Potency": "inactive"},
      {"smiles": "CCN(CC)C(=O)C(Sc1n[nH]c(-c2ccccc2)n1)c1ccccc1", "note": "(configuration not stated)", "Potency": "inactive"},
      {"smiles": "CCS(=O)(=O)N1CCC(NC(=O)c2ccc3ccccc3n2)CC1", "Potency": "inconclusive: 28.2 µM [inhibitor, partial curve, poor fit]"},
      {"smiles": "CCN1CCCC1CNCc1cccs1", "note": "(configuration not stated)", "Potency": "inconclusive: 22.4 µM [inhibitor, partial curve, poor fit]"},
      {"smiles": "O=C(Nc1ccc(S(=O)(=O)N2CCOCC2)cc1)C1CC(=O)N(CCc2ccc(F)cc2)C1", "note": "(configuration not stated)", "Potency": "inconclusive: 12.6 µM [inhibitor, full curve, poor fit]"},
      {"smiles": "COc1cc(/C=C(\\C#N)c2ccccn2)cc(OC)c1O", "Potency": "inconclusive: 50.1 µM [inhibitor, partial curve, poor fit]"},
      {"smiles": "CCOC(=O)N1CCC2(CC1)C(C#N)=C(N)Oc1c2c(C)nn1-c1cccc(Cl)c1", "Potency": "inconclusive: 0.447 µM [inhibitor, full curve, poor fit]"},
      {"smiles": "CN(C)C(=O)c1nc(-c2ccc(Cl)cc2)c2ccccn12", "Potency": "inconclusive: 35.5 µM [inhibitor, single point]"},
      {"smiles": "O=c1c2c(-c3ccc(Br)cc3)csc2ncn1-c1ccccc1", "Potency": "inactive"},
      {"smiles": "COc1cccc(C2Nc3ccccc3C(=O)N2c2ccc(F)cc2)c1O", "note": "(configuration not stated)", "Potency": "inconclusive: 89.1 µM [inhibitor, partial curve, poor fit]"},
      {"smiles": "Cc1cc2ncn(-c3nnnn3-c3ccccc3)c2cc1C", "Potency": "inconclusive: 0.0891 µM [inhibitor, full curve, poor fit]"},
      {"smiles": "CC(C)Sc1nc2ccc(Br)cc2[nH]1", "Potency": "inactive"},
      {"smiles": "CN(C)C=NC1=NN(c2cccc(C(F)(F)F)c2)CC1", "Potency": "inconclusive: 50.1 µM [inhibitor, single point]"},
      {"smiles": "COc1ccc(-c2nc3cnc(N4CCNCC4)nc3n(Cc3cccc(OC)c3)c2=O)cc1", "Potency": "inconclusive: 50.1 µM [inhibitor, partial curve, poor fit]"},
      {"smiles": "Cn1ccc2c(-c3cncc4ccccc34)cc3c(c21)C1CCC3O1", "note": "(configuration not stated)", "Potency": "inconclusive: 158 µM [inhibitor, single point]"},
      {"smiles": "O=C1N2CCCc3cccc(c32)C12Nc1ccccc1S2", "note": "(configuration not stated)", "Potency": "active: 25.1 µM"},
      {"smiles": "COc1ccc(C(=O)Nc2ccc(N3CCCCCC3)cc2)cc1S(=O)(=O)N1CCOCC1", "Potency": "inconclusive: 100 µM [inhibitor, single point]"},
      {"smiles": "CC(C)(C)CC(=O)N1CCC2(CC1)C(=O)N(CC(=O)Nc1ccc(F)cc1)CN2c1ccccc1", "Potency": "inactive"},
      {"smiles": "Cc1ccc(C(=O)Nc2ccc(C(=O)O)cc2)cc1S(=O)(=O)N1CCC(C)CC1", "Potency": "inconclusive: 56.2 µM [inhibitor, partial curve, poor fit] and inconclusive: 31.6 µM [inhibitor, single point]"},
      {"smiles": "COC(=O)c1cc(C(=O)N2CCN(c3ncccn3)CC2)cc([N+](=O)[O-])c1", "Potency": "inactive"}
    ]}
  ]
}
